Reference: PubChem BioAssay AID485314 (National Center for Advancing Translational Sciences (NCATS), 2010)
The campaign covered roughly 340,000 compounds. About 4,500 (1.3%) were called active. Inconclusive means that the source gave no clear call. Such entries were picked first, then a sample of the others. Calls come from the whole dose curve; as a rule, active = well fitted inhibition curve with a large enough effect; inconclusive = small, poorly fitted or top-dose-only effect, or another doubt; inactive = no such curve, though single readings can be large or run the other way. Potencies beside an inconclusive call are fits to weak or partial responses and may not hold up.

target: DNA polymerase beta (Homo sapiens) (UniProt P06746); assay: qHTS Assay for Inhibitors of DNA Polymerase Beta; details: Pol beta primer extension/strand displacement, fluorescence kinetic; activity change, negative = inhibition: at 114 µM (top of the series)
Method in brief: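 Enzyme-only controls used 10 nM Pol beta; buffer lacking enzyme served as negative control. Compound preincubated 15 min, then 50 nM substrate added; 0 and 10 min reads at room temperature.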
% is set by controls: 0 for no effect and ±100 for the full control effect; potency is the fitted concentration of half-maximal effect.

Row | SMILES | Potency | activity change, negative = inhibition
1 | COc1ccccc1N1CC(C)C(=O)NC1=S (stereo not drawn) | inconclusive: 56.2 µM [inhibitor, partial curve, poor fit] | 
2 | CCn1cc2nc(SCC(=O)Nc3ccc(OC)cc3OC)n(Cc3ccc(Cl)cc3)c(=O)c2n1 | inconclusive: 89.1 µM [inhibitor, single point] | 
3 | COc1cc(NC(=O)COc2ccccc2[N+](=O)[O-])ccc1NC(=O)c1cccs1 | inconclusive: 89.1 µM [inhibitor, single point] | 
4 | O=C1CC(c2ccco2)Sc2nc3ccccc3n21 (stereo not drawn) |  | inactive: -2.08%
5 | Fc1ccccc1Nc1nc(-c2ccncc2)nc2ccccc12 |  | inactive: 1.63%
6 | COc1ccc(N=Cc2oc3ccc4ccccc4c3c2O)cc1 | active: 11.2 µM | 
7 | COc1ccc(-c2csc3nc(-c4ccc(C)cc4)oc(=O)c23)cc1OC | inconclusive: 3.16 µM [inhibitor, full curve, poor fit] | 
8 | Cc1ccc(N(Cc2cccs2)C(=O)c2ccccc2[N+](=O)[O-])cc1 |  | inactive: -0.481%
9 | Cc1ccc2c(c1)N/C(=C(\C=C(/Cl)[N+](=O)[O-])[N+](=O)[O-])N2 | inconclusive: 22.4 µM [inhibitor, single point] | 
10 | Cc1noc(C)c1COc1ccc(C(=O)OCC(=O)NCc2ccccc2Cl)cc1 | inconclusive: 0.708 µM [inhibitor, full curve, poor fit] | 
11 | O=C(COC(=O)c1cc(S(=O)(=O)N2CCc3ccccc3C2)ccc1Cl)NCc1ccco1 | active: 39.8 µM | 
12 | O=C(/C=C/c1ccco1)NC(=S)Nc1ccc(Cl)cn1 | active: 35.5 µM | 
13 | O=C(NCCc1ccc(Cl)cc1)C1CCCN1C(=O)NCc1ccccc1 (stereo not drawn) | inconclusive: 100 µM [inhibitor, single point] | 
14 | Cc1ccc(S(=O)(=O)N2CCc3cc(C(=O)Nc4c(C)cccc4C(C)C)ccc32)cc1 | inconclusive: 89.1 µM [inhibitor, single point] | 
15 | Cc1nc(CSc2ccc(Cl)cc2)cc(N2CCOCC2)n1 |  | inactive: 33.1%
16 | CCOC(=O)/C(C(=Nc1ccccc1)Nc1ccccc1)=C(\C)O | inconclusive: 100 µM [inhibitor, single point] | 
17 | CCOC(=O)c1c(-c2ccc(C)cc2)csc1NC(=O)C1CC=CCC1C(=O)O (stereo not drawn) | inconclusive: 31.6 µM [inhibitor, full curve] | 
18 | S=C(NCCSCc1c(Cl)cccc1Cl)Nc1ccccc1 |  | inactive: 12.9%
19 | COc1ccccc1COn1c(=O)c(-c2ccco2)[n+]([O-])c2ccccc21 | inconclusive: 79.4 µM [inhibitor, single point] | 
20 | O=C(CNC(=O)C1COc2ccccc2O1)N/N=C/c1cc(Br)c(O)c(Br)c1 (stereo not drawn) | inconclusive: 50.1 µM [inhibitor, partial curve] | 
21 | O=C(CC12CC3CC(CC(C3)C1)C2)Nc1ccc2c(c1)COC2=O | inconclusive: 0.794 µM [inhibitor, full curve, poor fit] | 
22 | Cc1cccc(NC(=O)NNC(=O)c2cc(-c3ccccc3Cl)nc3ccccc23)c1 | inconclusive: 0.158 µM [inhibitor, partial curve, poor fit] | 
23 | CCOC(=O)c1cc(OC(=O)c2cc(OC)cc(OC)c2)n(-c2ccccc2)n1 | inconclusive: 22.4 µM [inhibitor, partial curve, poor fit] | 

Row | SMILES | Potency | activity change, negative = inhibition
24 | CC(=O)Nc1ccc(S(=O)(=O)NCC(=O)OCc2cc(=O)oc3ccc4ccccc4c23)cc1 | inconclusive: 50.1 µM [inhibitor, partial curve] | 
25 | CC1(C)OC(=O)C(=CNc2cccc(O)c2)C(=O)O1 |  | inactive: 19.1%
26 | Cn1c(=O)c(Nc2ccc(O)cc2)c2c3c(cccc31)C(=O)c1ccccc1-2 | active: 31.6 µM | 
27 | S=c1[nH]nc(-c2ccccc2)n1/N=C/C=C/c1ccco1 | active: 44.7 µM | 
28 | CCC(=O)OC1(C)C(=O)C2=COC(c3ccc(OC)cc3)=CC2=C(Br)C1=O (stereo not drawn) | inconclusive: 56.2 µM [inhibitor, partial curve, poor fit] | 
29 | CCOC(=O)N1CCC(N2Cc3cccc(C(=O)Nc4ccc(S(=O)(=O)N(CC)CC)cc4)c3C2=O)CC1 |  | inconclusive: -34.7% [inhibitor]
30 | CCOC(=O)c1c(NC(=O)C2C3C=CC(C3)C2C(=O)O)sc2c1CCCC2 (stereo not drawn) | inconclusive: 17.8 µM [inhibitor, full curve, poor fit] | 
31 | CC(=O)OC1(C(F)(F)F)Oc2ccccc2NC1=O (stereo not drawn) | active: 79.4 µM | 
32 | O=C(c1ccc(S(=O)(=O)NCc2ccco2)cc1)N1CCCC1 |  | inactive: 0.883%
33 | CCOC(=O)c1c(NC(=O)c2cc(-c3ccc(Cl)cc3)on2)sc(C)c1C | inconclusive: 79.4 µM [inhibitor, single point] | 
34 | CN(C)CCOc1ccc(C(C)(C)c2ccccc2)cc1 | inconclusive: 20 µM [inhibitor, partial curve] | 
35 | Cc1cc(NC(=O)CCC(=O)NNC(=O)c2ccc(C(C)(C)C)cc2)no1 | inconclusive: 25.1 µM [inhibitor, partial curve] | 
36 | COc1cccc(CNC(=O)c2nnn(CC(=O)Nc3ccc(Br)cc3)c2N)c1 | inconclusive: 100 µM [inhibitor, single point] | 
37 | O=C(N=NC(=O)c1ccco1)c1ccc2c(O)n(N3C(=O)c4ccccc4C3=O)c(O)c2c1 | active: 44.7 µM | 
38 | Cc1ccc(Cl)cc1NC(=O)Cn1ncc2c(C)n(Cc3ccccc3F)c(C)c2c1=O | active: 12.6 µM | 
39 | O=C(CS)Nc1ccc2ccccc2c1 | inconclusive: 25.1 µM [inhibitor, full curve] | 
40 | CCS(=O)(=O)NCCc1cc2ccc(C)cc2[nH]c1=O | inconclusive: 0.708 µM [inhibitor, full curve, poor fit] | 
41 | CCOC(=O)Cn1c(=NC(=O)CSC(C)=O)sc2cc(F)ccc21 | inconclusive: 89.1 µM [inhibitor, single point] | 
42 | COc1ccc(C2C(C#N)=C(N)Oc3c2ccc2cccnc32)cc1OC (stereo not drawn) | inconclusive: 89.1 µM [inhibitor, single point] | 
43 | Cc1ccc(C2C=C(c3ccc(Cl)cc3)Nc3nc(NC(=O)c4ccco4)nn32)cc1 (stereo not drawn) | inconclusive: 63.1 µM [inhibitor, single point] | 
44 | N#C/C(=C(/O)CCl)c1nc2c(s1)CCc1ccccc1-2 | inconclusive: 35.5 µM [inhibitor, full curve, poor fit] | 
45 | CCOc1ccc(NC(=O)CSc2nnc(Cn3cnc([N+](=O)[O-])n3)n2CC)cc1 | inconclusive: 35.5 µM [inhibitor, single point] | 
46 | Cc1ccc(NC(=O)Cn2cnc3sc(C)c(S(=O)(=O)N4CCN(c5ncccn5)CC4)c3c2=O)cc1F |  | inactive: 1.06%

Looked up by compound from above (3):
Row | SMILES | Potency | activity change, negative = inhibition
23 | CCOC(=O)c1cc(OC(=O)c2cc(OC)cc(OC)c2)n(-c2ccccc2)n1 | inconclusive: 22.4 µM [inhibitor, partial curve, poor fit] | 
27 | S=c1[nH]nc(-c2ccccc2)n1/N=C/C=C/c1ccco1 | active: 44.7 µM | 
32 | O=C(c1ccc(S(=O)(=O)NCc2ccco2)cc1)N1CCCC1 |  | inactive: 0.883%

Exported tab-delimited: part of the list above
Row	SMILES	Potency	activity change, negative = inhibition
28	CCC(=O)OC1(C)C(=O)C2=COC(c3ccc(OC)cc3)=CC2=C(Br)C1=O (stereo not drawn)	inconclusive: 56.2 µM [inhibitor, partial curve, poor fit]	
41	CCOC(=O)Cn1c(=NC(=O)CSC(C)=O)sc2cc(F)ccc21	inconclusive: 89.1 µM [inhibitor, single point]	

Carrying on.

Row | SMILES | Potency | activity change, negative = inhibition
47 | CCOC(=O)C1(CCCc2ccccc2)CCN(Cc2cnc(C)s2)CC1 |  | inactive: 29.6%
48 | Cc1ccc(S(=O)(=O)NNC(=O)c2cnn(-c3ccccc3)c2-n2cccc2)cc1 | inconclusive: 39.8 µM [inhibitor, single point] | 
49 | CCOC(=O)c1cc(S(=O)(=O)Nc2ccccc2OCC)[nH]n1 |  | inactive: 9.34%
50 | CCOC(=O)N1CCN(C(=O)COc2ccc(S(=O)(=O)NC(C)C)cc2)CC1 | inconclusive: 2 µM [inhibitor, full curve] | 
51 | CC(=O)c1cccc(Nc2ccc3cc(S(=O)(=O)N4CCCC4)ccc3n2)c1 |  | inactive: 2.53%
52 | Cc1ccc(-n2ncc(C(=O)NCCN3CCc4ccccc4C3)c2C2CCNCC2)cc1C |  | inactive: 20.9%
53 | O=c1[nH]c(C2CCN(S(=O)(=O)c3cccc(C(F)(F)F)c3)CC2)nc2c1nnn2Cc1cccc(F)c1 | inconclusive: 1.26 µM [inhibitor, full curve, poor fit] | 
54 | CNC(=O)Nc1ccc(C2SCCS2)cc1 | inconclusive: 89.1 µM [inhibitor, single point] | 
55 | CCOc1ccccc1NC(=O)c1nn(C)c2c1CSc1ccccc1-2 |  | inactive: 4.72%
56 | CCOc1ccc(-c2csc(-c3c(N)c(C(=O)c4ccc5c(c4)OCO5)n4ccccc34)n2)cc1 |  | inactive: 22.3%
57 | O=C(CN(C(=O)c1ccco1)c1cccc(F)c1)NCc1ccc(F)cc1 | inconclusive: 0.794 µM [inhibitor, partial curve, poor fit] | 
58 | CCN(CC)CCOC(=O)c1ccc(N/C=C(/C#N)c2nc(-c3ccc(OC)c(OC)c3)cs2)cc1 |  | inconclusive: -32% [inhibitor]
59 | c1ccc(-c2ccccc2OCCOCCN2CCOCC2)cc1 | active: 50.1 µM | 
60 | CCN(CC)S(=O)(=O)c1ccc(N2CCOCC2)c(NS(=O)(=O)c2ccc(C)cc2)c1 | inconclusive: 28.2 µM [inhibitor, single point] | 
61 | CC(C)c1ccccc1OCCNC(=S)NC(=O)c1cccnc1 | inconclusive: 79.4 µM [inhibitor, single point] | 
62 | Nc1nonc1C(=O)N/N=C/c1ccc(-c2ccc(Cl)c(C(=O)O)c2)o1 | inconclusive: 89.1 µM [inhibitor, single point] | 
63 | O=C(CSc1ccc2nnc(CCNC(=O)c3ccccc3)n2n1)NCc1ccc(F)cc1 | inconclusive: 79.4 µM [inhibitor, single point] | 
64 | CCOc1ccc(NC(=O)C(C)Sc2nc3ncccc3o2)cc1 (stereo not drawn) |  | inactive: 23%
65 | Cc1ncc(CN2CCCC(C(=O)Nc3ccc(-c4cccc(F)c4)cc3)C2)n1C (stereo not drawn) |  | inactive: -0.285%
66 | COc1ccc(Cc2nc3ccc(C(=O)N4CCN(C)C(C)C4)cc3o2)cc1OC (stereo not drawn) | inconclusive: 0.282 µM [inhibitor, full curve, poor fit] | 
67 | Cc1ccc(NC(=O)c2cc(-c3ccco3)nc3ccccc23)cc1S(=O)(=O)N1CCOCC1 | active: 14.1 µM | 
68 | CC(=O)Nc1nnc(S(=O)(=O)N2CCN(c3ccc([N+](=O)[O-])cc3Cl)CC2)s1 |  | inactive: -9.25%
